Measured values from patent publication US20160311887A1.
Numbering of substitutions follows the chain as printed. No constants are given. Whether binding was seen depends on the method and setting. Binding calls can cover weak binding; strength is not graded here.

B1: PCI variant 3.B11 (P4 F, P2 F, P1′ R) (protein)
chain: APSSRRDFTFDLYRALASAAPSQNIFFSPVSISMSLAMLSLGAGSSTKMQILEGLGLNLQKSSEKELHRGFQQLLQELNQPRDGFQLSLGNALFTDLVVDLQDTFVSAMKTLYLADTFPTNFRDSAGAMKQINDYVAKQTKGKIVDLLKNLDSNAVVIMVNYIFFKAKWETSFNHKGTQEQDFYVTSETVVRVPMMSREDQYHYLLDRNLSCRVVGVPYQGNATALFILPSEGKMQQVENGLSEKTLRKWLKMFKKRQLELYLPKFSIEGSYQLEKVLPSLGISNVFTSHADLSGISNHSNIQVSEMVHKAVVEVDESGTRAAAATGTIFTFRRARLNSQRLVFNRPFLMFIVDNNILFLGKVNRP
B2: PCI variant 3.C3 (P4 V, P2 R, P1′ I) (protein)
chain: B1 chain with F330V, F332R, R334I
B3: PCI variant 3.E8 (P4 F, P2 R, P1′ K) (protein)
chain: B1 chain with F332R, R334K
B4: PCI variant 3.G10 (P4 C, P2 L, P1′ K) (protein)
chain: B1 chain with F330C, F332L, R334K
B5: PCI variant 3.G11 (P4 W, P2 W, P1′ N) (protein)
chain: B1 chain with F330W, F332W, R334N
B6: PCI variant 4.E4 (P4 K, P2 D, P1′ M) (protein)
chain: B1 chain with F330K, F332D, R334M
B7: PCI variant 4.F7 (P4 F, P2 V, P1′ K) (protein)
chain: B1 chain with F332V, R334K
B8: PCI variant 4.F10 (P4 R, P2 R, P1′ I) (protein)
chain: B1 chain with F330R, F332R, R334I
B9: PCI variant 4.H7 (P4 G, P2 I, P1′ R) (protein)
chain: B1 chain with F330G, F332I
B10: PCI variant 5.D2 (P4 T, P2 R, P1′ V) (protein)
chain: B1 chain with F330T, F332R, R334V
B11: PCI variant 5.E7 (P4 L, P2 R, P1′ I) (protein)
chain: B1 chain with F330L, F332R, R334I
B12: PCI variant E7 (P4 S, P2 H, P1′ R) (protein)
chain: B1 chain with F330S, F332H
B13: PCI variant E10 (P4 R, P2 Q, P1′ V) (protein)
chain: B1 chain with F330R, F332Q, R334V
B14: PCI variant E11 (P4 T, P2 L, P1′ Y) (protein)
chain: B1 chain with F330T, F332L, R334Y
B15: PCI variant H11 (P4 A, P2 Q, P1′ Y) (protein)
chain: B1 chain with F330A, F332Q, R334Y
B16: A22 P2KP1′K PCI (protein)
chain: B1 chain with F332K, R334K

These binders were tested against activated Protein C (APC) (human) (assay: bacterial lysate screen, retested in triplicate; APC inhibition better than or equal to P2KP1′K PCI).
For B1, the binding was “binds”.
For B2, the binding was “binds”.
B3 was tested, and the binding was “binds”.
For B4, the binding was “binds”.
In the case of B5, the binding is reported as “binds”.
In the case of B6, the binding is reported as “binds”.
In the case of B7, the binding is reported as “binds”.
In the case of B8, the binding is reported as “binds”.
With B9 the binding was “binds”.
For B10, the binding was “binds”.
With B11 the binding was “binds”.

What follows are binders tested against activated Protein C (APC) (human) (assay: bacterial lysate screen, residual APC activity lower than or equal to that with P2KP1′K PCI).
With B12 the binding was “binds”.
With B13 the binding was “binds”.
In the case of B14, the binding is reported as “binds”.
B15 was tested, and the binding was “binds”.

The binders below were run against activated Protein C (APC) (human) (assay: inhibition kinetics with heparin).
With B16 the binding was “binds”.
